Test results published in PubChem BioAssay AID1347076 (National Center for Advancing Translational Sciences (NCATS), 2019).
Screen size: about 400,000 compounds; about 13,000 (3.2%) were called active. The inconclusive results got no clear call from the source; some entries with a clear call stand among them for comparison. The call rests on the fitted dose curve; in most records, active means well fitted cell-killing curve with a large enough effect; inconclusive means small, poorly fitted or top-dose-only effect, or effect the other way; inactive means flat fitted curve, though single readings scatter. Potencies of inconclusive entries are doubtful fits and often do not repeat.

assay: qHTS assay for MDR1-selective chemotherapeutics: Primary screen using the drug-selected MDR subline cells KB-V1; conditions: KB-V1 MDR cells viability, CellTiter-Glo, 72 h; activity change, negative = cytotoxicity: at 46.1 µM (top of the series); further: nearly all actives have a fitted effect of over 60% in size
In short: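 Cytotoxicity toward P-gp-expressing KB-V1 cells was determined as loss of CellTiter-Glo luminescence after 72 h at 37 degrees C. Compounds were tested in quantitative HTS format across a concentration range, with curves fitted to normalized data.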
On the % scale 0 is the no-effect control and ±100 the full control effect; potency means the concentration at half of the fitted maximal effect.

Structure (SMILES)	Potency	activity change, negative = cytotoxicity
COC(=O)c1ccc(Nc2nc(N3CCOCC3)nc(N3CCOCC3)n2)cc1	inactive	
CC(C)NC(NC(=O)/C=C/c1ccccc1)C(Cl)(Cl)Cl (configuration not stated)	inconclusive: 29.1 µM [cytotoxic, single point]	
COc1ccc(C(=O)N2C=Cc3ccccc3C2C(N)=O)cc1 (configuration not stated)	inconclusive: 16.4 µM [cytotoxic, single point]	
CC(C)(C)c1ccc(S(=O)(=O)/C=C/C#N)cc1	inactive	
CN(C)/C=N/c1c(C#N)cnn1C	inconclusive: 18.4 µM [rising, single point]	
COCCCn1c(=O)/c(=C/c2ccccc2OC(F)F)s/c1=C(\C#N)C(=O)NCCOC	inconclusive: 20.6 µM [rising, single point]	
CCOC(=O)C(C(=O)N(C)Cc1ccccc1)C1CCCCC1 (configuration not stated)	inactive	
CC(=O)c1c(C)[nH]c(C(=O)OCc2ccccc2)c1C	inconclusive: 6.51 µM [cytotoxic, partial curve]	
COc1cccc(Cn2nc(SC)c(S(=O)(=O)c3ccccc3)c2N(C(C)=O)C(C)=O)c1	inactive	
CCNC(=O)CN1C(=O)NC2(CCCc3cc(OC)ccc32)C1=O (configuration not stated)	inconclusive: 18.4 µM [rising, partial curve, poor fit]	
CC(C)C[C@@H](COCc1ccc(F)cc1)N1CCN(C(=O)c2cccc(C(F)(F)F)c2)CCC1=O	inconclusive: 3.66 µM [cytotoxic, full curve]	
CCCSCCCNC(=O)c1ccc(C)c(NC(=O)c2nsc3ccccc23)c1	inactive	
COc1ccc(-c2coc3c(C(=O)NCc4ccco4)cccc23)c(C)c1	inconclusive: 25.9 µM [cytotoxic, single point]	
COc1ccc(N(C(=O)CNC(=O)c2cccs2)C(C(=O)NC2CCCC2)c2ccncc2)cc1 (configuration not stated)	inconclusive: 8.2 µM [rising, partial curve, poor fit]	
COc1ccc(OC)c(S(=O)(=O)NCC(c2cccs2)N2CCc3ccccc3C2)c1 (configuration not stated)	inconclusive: 6.51 µM [cytotoxic, partial curve, poor fit]	
Cc1cccc(-c2nn(-c3ccccc3)cc2C(=O)N2CCN(C3CCS(=O)(=O)C3)CC2)c1 (configuration not stated)	active: 16.4 µM	
O=C(Nc1ccc(Oc2ccccc2)cc1)C1CCN(c2c3c(nc4ncnn24)CCC3)CC1	inconclusive: 29.1 µM [cytotoxic, single point]	
COc1ccc(-n2c(SCC(=O)NCc3ccc(Cl)cc3)nc3ccsc3c2=O)cc1		inconclusive: -27.1%
O=C(NNC1CC(=O)N(c2ccccc2)C1=O)c1ccccc1Cl (configuration not stated)	inactive	
Cc1ccc(S(=O)(=O)N(CC2CO2)c2cc(Cl)ccc2Cl)cc1 (configuration not stated)	inconclusive: 20.6 µM [cytotoxic, single point]	
Cc1cc(C(=O)N2CCCc3ccccc32)ccc1[N+](=O)[O-]	inconclusive: 16.4 µM [cytotoxic, single point]	

Structure (SMILES)	Potency	activity change, negative = cytotoxicity
CN1C(=O)C(O)(CC(=O)/C=C\c2ccc3c(c2)OCO3)c2ccccc21 (configuration not stated)	inactive	
CCc1nnc(NC(=O)CN2CCN(c3ccccc3OC)CC2)s1	inconclusive: 20.6 µM [cytotoxic, partial curve]	
CCN(C(=O)c1ccc2c(Cl)c3c(nc2c1)CCC3)c1ccc(C)c(C)c1	inconclusive: 23.1 µM [cytotoxic, single point]	
CCn1cc(C2=NC(C(C)C)CO2)c2ccccc21 (configuration not stated)	inactive	
Cc1cccc(-n2c(Cn3nc(C)c([N+](=O)[O-])c3C)n[nH]c2=S)c1		inconclusive: 35.6%
CC(=O)/C(=N\Nc1ccccc1Cl)Sc1cccc2cccnc12	inconclusive: 20.6 µM [cytotoxic, single point]	
C/C(=N\O)c1oc2ccc3c(C)cc(=O)oc3c2c1C	inconclusive: 2.59 µM [cytotoxic, full curve, poor fit]	
Cc1ccc(S(=O)(=O)N2CCCCC2)cc1NC(=O)CSc1ncn[nH]1	inconclusive: 3.66 µM [cytotoxic, partial curve, poor fit]	
CCOC(=O)C1=C(C)N(C)C(=S)NC1c1ccccc1Cl (configuration not stated)	inconclusive: 10.3 µM [cytotoxic, partial curve, poor fit]	
Cc1ccc(C)c(NC(=O)Cc2ccc(S(=O)(=O)N3CCCCC3)s2)c1	inconclusive: 16.4 µM [cytotoxic, single point]	
Cc1ccc(N2CC(NC(=O)C3CC3)CC2=O)cc1 (configuration not stated)	inactive	
COc1cccc(-n2c(=O)c3cc(OC)c(OC)cc3n(CC(=O)Nc3ccc(F)cc3)c2=O)c1	inconclusive: 29.1 µM [rising, single point]	
CCOc1ccc(CCNC(=O)c2nn(C)c3c2CS(=O)(=O)c2ccccc2-3)cc1OCC	inconclusive: 11.6 µM [cytotoxic, partial curve, poor fit]	
CN(CC(=O)Nc1ccc(OC(F)F)cc1)S(=O)(=O)/C=C/c1ccccc1	inconclusive: 23.1 µM [cytotoxic, single point]	
Cc1ccc2ccccc2c1C(O)c1ncc(-c2ccc(Cl)cc2)[nH]1 (configuration not stated)	inconclusive: 23.1 µM [cytotoxic, single point]	
C=CCN1CCN(C(c2cccc(OC)c2OC)c2nnnn2CCC(C)C)CC1 (configuration not stated)	inconclusive: 5.17 µM [cytotoxic, partial curve]	
COc1ccc2oc(=O)c(C(=O)NC3CCCCCC3)cc2c1	inconclusive: 32.6 µM [cytotoxic, partial curve, poor fit]	
CN(CCC(=O)Nc1cc(S(=O)(=O)N(C)C)ccc1Cl)CC(=O)Nc1ccc(F)cc1	inconclusive: 9.2 µM [cytotoxic, partial curve]	
CC(C)NC(=O)c1ccccc1-c1nc(-c2ccccc2Cl)no1	inconclusive: 16.4 µM [cytotoxic, single point]	
COc1ccc(C(c2nnnn2-c2ccc3c(c2)OCCO3)N2CCN(C/C=C/c3ccccc3)CC2)cc1 (configuration not stated)	inactive	
CCOC(=O)c1ccc(NC(=O)CN2C(=O)C(CC)SC(CC)C2=O)cc1 (configuration not stated)	inconclusive: 3.26 µM [cytotoxic, partial curve, poor fit]	

Part of the list above in order of number of heavy atoms, falling.
Structure (SMILES)	Potency	activity change, negative = cytotoxicity
COc1ccc(C(c2nnnn2-c2ccc3c(c2)OCCO3)N2CCN(C/C=C/c3ccccc3)CC2)cc1 (configuration not stated)	inactive	
CN(CC(=O)Nc1ccc(OC(F)F)cc1)S(=O)(=O)/C=C/c1ccccc1	inconclusive: 23.1 µM [cytotoxic, single point]	
C/C(=N\O)c1oc2ccc3c(C)cc(=O)oc3c2c1C	inconclusive: 2.59 µM [cytotoxic, full curve, poor fit]	
